Reference: the supplement of paper PMC10849652
This is one part of the list.

The chains behind the UniProt entries cited, without tags or fusion partners. Where a name states a change or a piece, a line headed by the entry shows the natural chain unless it says otherwise.
UniProt O95470: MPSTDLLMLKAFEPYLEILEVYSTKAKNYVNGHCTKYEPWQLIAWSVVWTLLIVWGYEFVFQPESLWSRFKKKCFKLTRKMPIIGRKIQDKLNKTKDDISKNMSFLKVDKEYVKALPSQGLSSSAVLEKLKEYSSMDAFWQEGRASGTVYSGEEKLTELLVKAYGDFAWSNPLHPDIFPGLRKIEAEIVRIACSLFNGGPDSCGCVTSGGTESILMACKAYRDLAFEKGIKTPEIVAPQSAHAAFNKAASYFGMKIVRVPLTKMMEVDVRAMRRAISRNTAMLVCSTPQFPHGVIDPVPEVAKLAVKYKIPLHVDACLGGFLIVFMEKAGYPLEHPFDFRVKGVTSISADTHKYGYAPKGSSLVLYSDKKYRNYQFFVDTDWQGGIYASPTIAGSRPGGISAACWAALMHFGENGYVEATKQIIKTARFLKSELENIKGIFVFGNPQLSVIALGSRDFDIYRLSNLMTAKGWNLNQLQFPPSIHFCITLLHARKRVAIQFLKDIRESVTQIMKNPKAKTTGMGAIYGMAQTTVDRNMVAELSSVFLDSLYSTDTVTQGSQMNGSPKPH
UniProt Q8NBJ9: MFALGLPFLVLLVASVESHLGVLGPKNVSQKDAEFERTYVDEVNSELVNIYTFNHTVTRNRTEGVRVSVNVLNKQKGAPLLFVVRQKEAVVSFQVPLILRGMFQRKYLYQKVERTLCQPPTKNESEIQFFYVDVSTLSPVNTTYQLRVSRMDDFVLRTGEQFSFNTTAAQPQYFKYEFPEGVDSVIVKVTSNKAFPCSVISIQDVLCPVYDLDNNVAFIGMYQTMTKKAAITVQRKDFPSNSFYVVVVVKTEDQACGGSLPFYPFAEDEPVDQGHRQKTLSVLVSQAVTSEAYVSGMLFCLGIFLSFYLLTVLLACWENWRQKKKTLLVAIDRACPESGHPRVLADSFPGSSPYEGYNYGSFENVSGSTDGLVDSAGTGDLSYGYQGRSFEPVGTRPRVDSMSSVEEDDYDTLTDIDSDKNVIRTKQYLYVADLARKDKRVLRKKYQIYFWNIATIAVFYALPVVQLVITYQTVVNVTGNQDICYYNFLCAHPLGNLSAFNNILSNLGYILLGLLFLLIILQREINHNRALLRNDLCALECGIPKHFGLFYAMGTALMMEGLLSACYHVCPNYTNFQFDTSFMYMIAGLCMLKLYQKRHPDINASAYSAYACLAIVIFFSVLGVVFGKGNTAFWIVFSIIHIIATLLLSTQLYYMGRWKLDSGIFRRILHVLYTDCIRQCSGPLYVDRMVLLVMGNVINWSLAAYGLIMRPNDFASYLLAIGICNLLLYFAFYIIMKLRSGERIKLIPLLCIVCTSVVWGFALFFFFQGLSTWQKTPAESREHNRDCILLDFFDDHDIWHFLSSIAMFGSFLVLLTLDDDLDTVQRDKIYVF
UniProt Q9UQ13: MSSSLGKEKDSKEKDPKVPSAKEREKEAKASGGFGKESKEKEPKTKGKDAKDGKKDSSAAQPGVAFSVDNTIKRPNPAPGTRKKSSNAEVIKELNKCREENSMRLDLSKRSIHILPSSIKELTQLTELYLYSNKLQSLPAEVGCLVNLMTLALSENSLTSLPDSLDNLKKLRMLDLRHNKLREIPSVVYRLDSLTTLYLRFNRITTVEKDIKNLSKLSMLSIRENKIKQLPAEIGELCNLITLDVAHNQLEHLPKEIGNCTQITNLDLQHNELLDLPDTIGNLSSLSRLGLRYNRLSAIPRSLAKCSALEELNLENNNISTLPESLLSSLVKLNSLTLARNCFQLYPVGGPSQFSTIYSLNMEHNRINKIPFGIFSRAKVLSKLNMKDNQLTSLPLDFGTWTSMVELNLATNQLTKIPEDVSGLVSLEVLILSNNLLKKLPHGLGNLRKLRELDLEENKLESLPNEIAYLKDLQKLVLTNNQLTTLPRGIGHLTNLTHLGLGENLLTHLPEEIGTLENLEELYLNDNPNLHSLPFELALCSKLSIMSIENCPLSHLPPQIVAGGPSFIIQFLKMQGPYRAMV
UniProt Q9HD40: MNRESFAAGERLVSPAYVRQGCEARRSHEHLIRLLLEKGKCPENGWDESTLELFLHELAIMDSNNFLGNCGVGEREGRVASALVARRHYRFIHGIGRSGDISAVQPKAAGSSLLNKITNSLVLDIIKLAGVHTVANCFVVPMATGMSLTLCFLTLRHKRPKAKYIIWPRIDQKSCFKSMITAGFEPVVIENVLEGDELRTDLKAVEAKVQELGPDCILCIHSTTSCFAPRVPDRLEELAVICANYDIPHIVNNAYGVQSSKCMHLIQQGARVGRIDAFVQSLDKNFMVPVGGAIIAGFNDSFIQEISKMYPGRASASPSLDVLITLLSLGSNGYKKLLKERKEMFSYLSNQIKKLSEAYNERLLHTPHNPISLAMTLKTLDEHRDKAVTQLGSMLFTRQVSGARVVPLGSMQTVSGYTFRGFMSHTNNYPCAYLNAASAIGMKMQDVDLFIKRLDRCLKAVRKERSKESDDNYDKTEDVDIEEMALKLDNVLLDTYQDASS
UniProt P36955: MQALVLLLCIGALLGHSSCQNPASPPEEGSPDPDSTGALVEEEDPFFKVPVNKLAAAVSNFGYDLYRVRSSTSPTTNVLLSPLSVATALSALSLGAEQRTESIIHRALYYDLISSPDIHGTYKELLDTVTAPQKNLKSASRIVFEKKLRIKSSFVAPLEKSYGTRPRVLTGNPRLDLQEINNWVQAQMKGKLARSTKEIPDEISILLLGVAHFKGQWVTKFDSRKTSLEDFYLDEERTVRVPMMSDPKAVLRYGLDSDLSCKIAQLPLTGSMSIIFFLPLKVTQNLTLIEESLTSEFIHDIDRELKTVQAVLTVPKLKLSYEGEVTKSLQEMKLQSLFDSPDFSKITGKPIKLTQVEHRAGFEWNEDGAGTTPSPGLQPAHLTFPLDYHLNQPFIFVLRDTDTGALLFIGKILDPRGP
UniProt Q96ST3: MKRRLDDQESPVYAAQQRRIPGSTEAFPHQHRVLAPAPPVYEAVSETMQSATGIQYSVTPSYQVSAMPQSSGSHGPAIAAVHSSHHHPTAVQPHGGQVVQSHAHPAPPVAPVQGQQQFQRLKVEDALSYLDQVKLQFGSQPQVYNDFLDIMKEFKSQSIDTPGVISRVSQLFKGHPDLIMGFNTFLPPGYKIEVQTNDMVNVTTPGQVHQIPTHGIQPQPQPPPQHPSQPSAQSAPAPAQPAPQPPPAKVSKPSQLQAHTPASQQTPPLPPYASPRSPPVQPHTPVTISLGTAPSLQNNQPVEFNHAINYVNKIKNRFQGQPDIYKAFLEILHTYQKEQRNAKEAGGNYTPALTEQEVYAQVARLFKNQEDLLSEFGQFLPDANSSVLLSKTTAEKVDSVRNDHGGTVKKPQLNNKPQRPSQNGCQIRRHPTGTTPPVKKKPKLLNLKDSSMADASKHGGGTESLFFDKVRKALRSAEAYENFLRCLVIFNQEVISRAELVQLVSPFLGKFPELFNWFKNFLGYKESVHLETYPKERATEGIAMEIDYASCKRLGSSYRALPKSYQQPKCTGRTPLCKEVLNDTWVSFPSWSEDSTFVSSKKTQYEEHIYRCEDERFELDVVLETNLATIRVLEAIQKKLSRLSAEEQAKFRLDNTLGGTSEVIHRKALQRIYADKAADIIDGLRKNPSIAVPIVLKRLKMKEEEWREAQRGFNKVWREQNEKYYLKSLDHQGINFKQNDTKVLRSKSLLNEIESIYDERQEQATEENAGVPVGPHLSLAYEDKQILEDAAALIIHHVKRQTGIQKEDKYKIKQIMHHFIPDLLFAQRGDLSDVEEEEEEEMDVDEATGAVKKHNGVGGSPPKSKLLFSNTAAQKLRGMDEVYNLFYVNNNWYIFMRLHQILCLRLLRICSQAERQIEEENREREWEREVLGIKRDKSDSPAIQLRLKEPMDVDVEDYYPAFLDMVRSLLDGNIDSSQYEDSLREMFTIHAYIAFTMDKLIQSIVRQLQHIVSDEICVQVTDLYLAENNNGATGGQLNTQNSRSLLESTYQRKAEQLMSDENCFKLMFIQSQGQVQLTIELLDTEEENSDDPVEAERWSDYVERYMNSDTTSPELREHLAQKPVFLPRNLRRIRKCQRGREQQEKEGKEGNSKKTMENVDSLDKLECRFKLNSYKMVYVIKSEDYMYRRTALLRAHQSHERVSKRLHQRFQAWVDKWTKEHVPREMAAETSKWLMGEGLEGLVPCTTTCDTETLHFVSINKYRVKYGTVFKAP
UniProt Q86TU7: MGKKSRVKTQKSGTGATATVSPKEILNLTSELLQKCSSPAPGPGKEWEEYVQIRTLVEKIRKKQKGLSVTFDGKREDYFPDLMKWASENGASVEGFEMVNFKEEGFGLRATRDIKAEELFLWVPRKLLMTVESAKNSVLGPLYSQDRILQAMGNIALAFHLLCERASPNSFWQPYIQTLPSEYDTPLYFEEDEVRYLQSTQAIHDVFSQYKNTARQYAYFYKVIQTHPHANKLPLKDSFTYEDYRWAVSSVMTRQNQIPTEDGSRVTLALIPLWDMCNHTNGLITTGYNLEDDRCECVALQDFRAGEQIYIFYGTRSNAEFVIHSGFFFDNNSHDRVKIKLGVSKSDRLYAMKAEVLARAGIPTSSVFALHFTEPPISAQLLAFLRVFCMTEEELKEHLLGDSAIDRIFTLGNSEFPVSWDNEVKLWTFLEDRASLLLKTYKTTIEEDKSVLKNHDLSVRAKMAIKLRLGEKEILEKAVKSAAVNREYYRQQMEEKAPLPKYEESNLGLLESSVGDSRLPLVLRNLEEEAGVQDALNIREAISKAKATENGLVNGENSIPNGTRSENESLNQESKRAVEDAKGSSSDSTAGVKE
UniProt O43236: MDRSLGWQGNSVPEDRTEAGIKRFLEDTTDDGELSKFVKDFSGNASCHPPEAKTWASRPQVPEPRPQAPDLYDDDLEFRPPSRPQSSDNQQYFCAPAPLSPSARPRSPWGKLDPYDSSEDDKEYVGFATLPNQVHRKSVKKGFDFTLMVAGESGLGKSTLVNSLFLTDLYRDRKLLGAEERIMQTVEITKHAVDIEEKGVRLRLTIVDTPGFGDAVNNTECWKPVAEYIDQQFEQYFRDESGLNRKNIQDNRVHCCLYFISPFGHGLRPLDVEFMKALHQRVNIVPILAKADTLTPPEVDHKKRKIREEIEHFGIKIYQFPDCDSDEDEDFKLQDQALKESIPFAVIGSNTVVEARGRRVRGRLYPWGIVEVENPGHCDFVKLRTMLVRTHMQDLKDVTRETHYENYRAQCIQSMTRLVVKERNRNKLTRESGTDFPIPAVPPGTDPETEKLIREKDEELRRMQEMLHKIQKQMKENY
UniProt Q8IZQ5, whole entry, looked up: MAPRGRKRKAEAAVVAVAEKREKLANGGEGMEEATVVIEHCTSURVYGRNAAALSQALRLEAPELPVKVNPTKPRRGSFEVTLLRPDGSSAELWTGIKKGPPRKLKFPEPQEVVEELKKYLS
UniProt Q9NR46: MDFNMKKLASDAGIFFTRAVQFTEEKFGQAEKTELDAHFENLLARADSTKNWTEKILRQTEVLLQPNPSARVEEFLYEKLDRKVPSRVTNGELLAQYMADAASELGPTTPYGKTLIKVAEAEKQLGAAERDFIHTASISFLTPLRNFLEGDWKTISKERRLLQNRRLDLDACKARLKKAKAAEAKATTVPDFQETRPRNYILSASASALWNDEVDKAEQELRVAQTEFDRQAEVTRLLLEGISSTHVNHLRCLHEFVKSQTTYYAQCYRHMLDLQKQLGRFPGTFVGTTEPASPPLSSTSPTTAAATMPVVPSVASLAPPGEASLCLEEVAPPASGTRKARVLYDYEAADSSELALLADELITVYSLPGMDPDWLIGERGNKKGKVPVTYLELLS
UniProt P05543: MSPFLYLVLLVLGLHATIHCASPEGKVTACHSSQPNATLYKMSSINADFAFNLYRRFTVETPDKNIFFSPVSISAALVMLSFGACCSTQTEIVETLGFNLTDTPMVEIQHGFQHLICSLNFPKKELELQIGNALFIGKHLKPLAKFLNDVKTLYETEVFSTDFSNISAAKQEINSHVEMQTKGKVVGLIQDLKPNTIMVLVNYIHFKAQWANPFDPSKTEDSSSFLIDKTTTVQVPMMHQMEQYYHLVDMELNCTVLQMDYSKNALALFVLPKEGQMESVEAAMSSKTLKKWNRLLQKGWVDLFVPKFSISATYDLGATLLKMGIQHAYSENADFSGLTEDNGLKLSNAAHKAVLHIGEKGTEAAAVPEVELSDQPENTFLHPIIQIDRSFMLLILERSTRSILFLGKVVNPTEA
UniProt Q99720, whole entry, looked up: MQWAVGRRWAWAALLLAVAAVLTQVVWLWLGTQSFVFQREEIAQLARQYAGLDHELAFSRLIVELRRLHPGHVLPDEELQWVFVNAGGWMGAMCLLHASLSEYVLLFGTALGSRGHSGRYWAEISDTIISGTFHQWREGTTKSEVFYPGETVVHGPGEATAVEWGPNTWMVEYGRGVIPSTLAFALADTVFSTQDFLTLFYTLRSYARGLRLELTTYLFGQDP
UniProt O60613, whole entry, looked up: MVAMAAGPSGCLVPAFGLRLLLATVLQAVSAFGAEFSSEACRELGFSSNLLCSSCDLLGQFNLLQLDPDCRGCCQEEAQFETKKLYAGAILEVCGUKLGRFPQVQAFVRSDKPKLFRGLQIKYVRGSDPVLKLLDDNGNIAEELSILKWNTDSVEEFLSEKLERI

Each target was assayed with C1=CC(=CC=C1C2=NC3=C(N2)C=C(C=C3)C(=O)N)OC4=CC=C(C=C4)Cl (assay: log2 fold change, soluble protein after heating vs DMSO (PISA); higher = thermal stabilisation; K562 cells, 10 uM, 30 min; active = over 0.2 and 3.5 SD of the protein, either way, in both replicates (recomputed)).
Outline: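 Aliquots of K562 cells (2×10^6 cells/mL) treated with 10 μM compound for 30 min were heated for 3 min over 48°C-58°C. After pooling and extraction in PBS with 0.5% NP-40 at 4°C, soluble protein from a 21,000xg, 90 min spin was quantified by TMTpro 16plex LC-MS/MS with channel sums equalised. Thermal stability is expressed against control samples, from duplicates, as a log2 fold change.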

log2 fold change, inactive:
SFXN2 (UniProt Q96NB2) -0.018
SESN2 (UniProt P58004) -0.003
SGPL1 (UniProt O95470) -0.047
SGTA (UniProt O43765) 0.025
SIDT2 isoform 2 (UniProt Q8NBJ9) 0.004
SHOC2 (UniProt Q9UQ13) -0.026
SEPSECS (UniProt Q9HD40) 0.033
SERINC1 (UniProt Q9NRX5) 0.096
SERPINF1 (UniProt P36955) -0.023
SIN3A (UniProt Q96ST3) 0.054
SEH1L isoform 1 (UniProt Q96EE3) 0.043
SETD3 (UniProt Q86TU7) 0.009
SEPTIN9 (UniProt Q9UHD8) -0.001
SEPTIN4 isoform 4 (UniProt O43236) -0.028
SHCBP1 (UniProt Q8NEM2) 0.018
SENP6 (UniProt Q9GZR1) -0.049
SELENOH (UniProt Q8IZQ5) -0.003
SETMAR (UniProt Q53H47) -0.018
SKP1 (UniProt P63208) -0.011
SH3GLB2 (UniProt Q9NR46) -0.021
SEPHS2 (UniProt Q99611) -0.009
SERPINA7 (UniProt P05543) 0.091
SERPINB6, A0A087X1N8 0.004
SHC1 isoform 6 (UniProt P29353) 0.012
SERINC3 (UniProt Q13530) 0.041
SEL1L3 (UniProt Q68CR1) -0.064
SFXN5 (UniProt Q8TD22) 0.082
SH3GL1 (UniProt Q99961) 0.003
SEPTIN5 (UniProt Q99719) 0.006
SIRT2 (UniProt Q8IXJ6) 0.054
SIGMAR1 (UniProt Q99720) 0.013
SELENOF (UniProt O60613) 0.034

2 records picked at random from those above, as already listed:
log2 fold change, inactive:
SEPSECS (UniProt Q9HD40) 0.033
SIDT2 isoform 2 (UniProt Q8NBJ9) 0.004
